Assay results reported in patent US20100062978A1.
No constants are given. Whether binding was seen depends on the method and setting. Binding seen in cells or lysates may run through a third protein. Some entries that bind do so weakly or less than the wild type. Tags and fused reporters may be left off the sequences shown.

Protein sequences, listed by entry. Tags and fused reporters are not part of them.
UniProt P28482: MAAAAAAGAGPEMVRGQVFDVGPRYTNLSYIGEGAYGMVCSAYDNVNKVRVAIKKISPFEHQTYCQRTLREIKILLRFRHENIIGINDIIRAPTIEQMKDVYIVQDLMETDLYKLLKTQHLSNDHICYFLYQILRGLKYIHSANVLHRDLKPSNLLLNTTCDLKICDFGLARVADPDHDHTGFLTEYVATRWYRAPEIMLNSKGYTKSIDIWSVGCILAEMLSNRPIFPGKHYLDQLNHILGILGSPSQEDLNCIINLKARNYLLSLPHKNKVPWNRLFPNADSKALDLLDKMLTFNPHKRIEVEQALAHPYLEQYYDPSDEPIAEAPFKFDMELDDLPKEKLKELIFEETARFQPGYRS

Biological target: T1, 1-252 variant of human SNT-2, C-terminal FLAG-tag (human) (UniProt O43559)
T1 sequence: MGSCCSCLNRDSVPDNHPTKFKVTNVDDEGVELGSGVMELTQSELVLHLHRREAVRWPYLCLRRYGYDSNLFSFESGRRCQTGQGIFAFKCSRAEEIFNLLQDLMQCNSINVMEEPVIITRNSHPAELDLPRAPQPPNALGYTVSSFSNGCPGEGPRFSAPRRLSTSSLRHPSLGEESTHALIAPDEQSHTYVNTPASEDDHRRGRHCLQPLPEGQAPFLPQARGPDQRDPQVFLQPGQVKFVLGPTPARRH
Test: GST pull-down from HEK293 lysate on Glutathione Sepharose, immunoblot

- binding: binds
Substance: GST-ERK2 fusion protein (glutathione S-transferase fused with human ERK2, from pGEX-4T-1) (from UniProt P28482 1-360)
